In patent US6822074 (dated 2004) one finds step yield and cyclisation yield data, which are given here for 5 substances.

Square brackets hold non-standard residues; d marks the D form. * marks the point of attachment. Pbf = Cc1c(C)c(S(=O)(=O)*)c(C)c2c1OC(C)(C)C2; NMeV = CN[C@H](C(=O)O)C(C)C; Boc = CC(C)(C)OC(=O)*; OBn = c1ccc(CO*)cc1; OtBu = CC(C)(C)O*

The series can be described thus: general procedure: solution-phase peptide synthesis; EDCI/DMAP (fragment coupling); TBTU/N-methylmorpholine (cyclisation).
The mark [1] stands for this setting: late stage modification step, internal salt.

As to Boc-D(OBn)[dF][NMeV]R(Pbf)G-OtBu, under “coupling step, internal salt”, the step yield is reported as 82%.
For the substance “Cyclo(Arg(Pbf)-Gly-Asp(OBzl)-DPhe-NMeVal)”, under “cyclisation step, internal salt”, the cyclisation yield was 73.4%.
Consider Cyclo(Arg(Pbf)-Gly-Asp-DPhe-NMeVal), for which, under setting [1], the step yield was 83%.
Cyclo(Arg-Gly-Asp-DPhe-NMeVal): the step yield under setting [1] came to 96%.
Take “H-Asp(OBzl)-DPhe-NMeVal-Arg(Pbf)-Gay-OHxHCOOH”: the step yield (late stage modification step, HCOOH salt) is reported as 95%.
